These results are taken from PMC11077971 (mBio, 2024).

These are yes or no findings as the source states them, for the method shown. Binding calls can cover weak binding; strength is not graded here. Tags and fused reporters may be left off the sequences shown. For part of these data: Binding seen in cells or lysates may run through a third protein.

Assay [1] deals with GST-CTβ-CTα subcomplex of Chloroflexus aurantiacus carboxyltransferase (Chloroflexus aurantiacus J-10-fl). Nature of the assay: pull-down; 50 ng GST-CTβ-CTα on glutathione-Sepharose resin as bait, 150 ng His6-tagged BC protein, 1 h at 4°C; 50 mM Tris-Base pH 9.0, 150 mM NaCl, 5 mM MgCl2, 5% glycerol, 0.01% Triton-X100; SDS-PAGE; also with 2 mM NaHCO3 and Ac-CoA added (not affected); both purified.

For assay [2] the target is unchanged. Nature of the assay: co-purification (Ni2+-chelating, then GST affinity) + SEC; His6-BC1 and GST-CTβ-CTα co-expressed in E. coli BL21(DE3) with 10 mg/L biotin; 50 mM Tris-Base pH 9.0, 150 mM NaCl, 5 mM MgCl2, 5% glycerol; HiLoad 16/600 Superdex 200 PG; SDS-PAGE of the peak.

B1: His6-BC1ΔBCCP^Core (Met1-Lys510) (domain or fragment, Chloroflexus aurantiacus J-10-fl, UniProt A9W9X0 1-510, looked up)
chain: MFRTILVANRGEIALRVMRACRELGLRCVAVYSEADRDAPHVAYADDAFLIGPPSPAESYLNIDAIIRAAKATGAEAIHPGYGFLAENASFVRAVTAAGLIFIGPPAEAMERMGGKTAARREATAAGVPVVPGVLEPVTDAAEVRRLGKEFGYPIAIKAVGGGGGRGLRVVRSPEEVDEAFAAARREAEVAFKNGELYVEKYLDDPRHIEIQVLADRYGNAVALGERDCSVQRRHQKLIEECPSPALTPELRAEMGAAAVRLAKAVGYVSAGTLEFLFQDGRYYFLEMNTRIQVEHTVTEMVYGIDLVAAQIRIAQGEKLWFKQEDVVPRGHAIECRINAEDPLHNFRPALGTIGEYHEPVGFGVRVDSGVRAYYTVPSHYDSLLAKLITWGSDRQEAIARMRRALAEYRIEGVTTIIPFHQAALEHPVFTAGAATVNFIPRHPELFSRAAELTPPTAASAGAEPAPEPRRFTIEVNGRRFGVAVFGDGMNATPVASPSRSAPARRAAPK
notes: biotin carboxylase isoform BC1 without the BCCP core, Chloroflexus aurantiacus J-10-fl; The cloning of this construct is not described in the methods; source: E. coli BL21(DE3), purified
For B1, the binding result in assay [1] was “no binding”.

B2: Chloroflexus aurantiacus BC2 (His6-tagged, Met1-Val455) (enzyme, Chloroflexus aurantiacus J-10-fl, UniProt A9WKH8 1-455, looked up)
chain: MIRKVLVANRGEIAVRIIRACQELGIRTVVAYSTADRDSLAVRLADEAVCIGPPPAAKSYLNAPALISAALVSGCDAIHPGYGFLSENPYFAEMCADCKLTFIGPPPEPIRLMGDKAIGRETMRKAGVPTVPGSDGEVRSLEEAIDVARQIGYPVLLKPSGGGGGRGMRVAYDEADLQRAFPTARAEAEAAFGNGALLLEKYLTRVRHVEIQVLADQYGHAIHLGERDCSAQRRHQKIVEEAPSPAVTPELRERMGADAVRGIKSIGYVNAGTLEFLLDQDGNYYFIEMNTRIQVEHPVTEQVTGIDLVRWQLLIASGERLTLRQEDIKITRHAIECRINAEDPERDFLPASGEVEFYLPPGGPGVRVDSHLYSGYTPPGTYDSLLAKIITFGDTRDEALNRMRRALNECVITGIKTTIPFQLALIDDPEFRAGRIHTGYVAELLRQWKETLNPV
notes: biotin carboxylase isoform BC2, Chloroflexus aurantiacus J-10-fl, 455 residues; Met1-Val455 is called full-length; also called His6-BC2; biotin carboxylase isoform 2; not shown: His6, N-terminal, kept
B2: the binding entry in assay [1] was “no binding (tested: 150 ng)”.

B3: His6-BC1ΔBCCP (Met1-Glu452) (domain or fragment, Chloroflexus aurantiacus J-10-fl, UniProt A9W9X0 1-452, looked up)
chain: MFRTILVANRGEIALRVMRACRELGLRCVAVYSEADRDAPHVAYADDAFLIGPPSPAESYLNIDAIIRAAKATGAEAIHPGYGFLAENASFVRAVTAAGLIFIGPPAEAMERMGGKTAARREATAAGVPVVPGVLEPVTDAAEVRRLGKEFGYPIAIKAVGGGGGRGLRVVRSPEEVDEAFAAARREAEVAFKNGELYVEKYLDDPRHIEIQVLADRYGNAVALGERDCSVQRRHQKLIEECPSPALTPELRAEMGAAAVRLAKAVGYVSAGTLEFLFQDGRYYFLEMNTRIQVEHTVTEMVYGIDLVAAQIRIAQGEKLWFKQEDVVPRGHAIECRINAEDPLHNFRPALGTIGEYHEPVGFGVRVDSGVRAYYTVPSHYDSLLAKLITWGSDRQEAIARMRRALAEYRIEGVTTIIPFHQAALEHPVFTAGAATVNFIPRHPELFSRAAE
notes: BC domain of biotin carboxylase isoform BC1, Chloroflexus aurantiacus J-10-fl; also called BCCP-truncated BC1 mutant; not shown: His6, N-terminal, kept
As to B3, the binding entry in assay [1] is on record as “no binding (tested: 150 ng)”.

B4: biotinylated His6-tagged Chloroflexus aurantiacus BC1 (enzyme, UniProt A9W9X0 1-596)
chain: MFRTILVANRGEIALRVMRACRELGLRCVAVYSEADRDAPHVAYADDAFLIGPPSPAESYLNIDAIIRAAKATGAEAIHPGYGFLAENASFVRAVTAAGLIFIGPPAEAMERMGGKTAARREATAAGVPVVPGVLEPVTDAAEVRRLGKEFGYPIAIKAVGGGGGRGLRVVRSPEEVDEAFAAARREAEVAFKNGELYVEKYLDDPRHIEIQVLADRYGNAVALGERDCSVQRRHQKLIEECPSPALTPELRAEMGAAAVRLAKAVGYVSAGTLEFLFQDGRYYFLEMNTRIQVEHTVTEMVYGIDLVAAQIRIAQGEKLWFKQEDVVPRGHAIECRINAEDPLHNFRPALGTIGEYHEPVGFGVRVDSGVRAYYTVPSHYDSLLAKLITWGSDRQEAIARMRRALAEYRIEGVTTIIPFHQAALEHPVFTAGAATVNFIPRHPELFSRAAELTPPTAASAGAEPAPEPRRFTIEVNGRRFGVAVFGDGMNATPVASPSRSAPARRAAPKKTTLAAPVDAVISPIQGRVVAVRVAHGQQVEAGQVLFIVEAMKMENEITAPHSGTIAEVRVEVGTTVEAGAMLATYQNTANNTNGK
modifications: biotin on Lys553
As for B4, the binding entry in assay [1] and in assay [2] was “binds” in each case.

B5: His6-BC1K553A (enzyme, UniProt A9W9X0 1-596)
chain: MFRTILVANRGEIALRVMRACRELGLRCVAVYSEADRDAPHVAYADDAFLIGPPSPAESYLNIDAIIRAAKATGAEAIHPGYGFLAENASFVRAVTAAGLIFIGPPAEAMERMGGKTAARREATAAGVPVVPGVLEPVTDAAEVRRLGKEFGYPIAIKAVGGGGGRGLRVVRSPEEVDEAFAAARREAEVAFKNGELYVEKYLDDPRHIEIQVLADRYGNAVALGERDCSVQRRHQKLIEECPSPALTPELRAEMGAAAVRLAKAVGYVSAGTLEFLFQDGRYYFLEMNTRIQVEHTVTEMVYGIDLVAAQIRIAQGEKLWFKQEDVVPRGHAIECRINAEDPLHNFRPALGTIGEYHEPVGFGVRVDSGVRAYYTVPSHYDSLLAKLITWGSDRQEAIARMRRALAEYRIEGVTTIIPFHQAALEHPVFTAGAATVNFIPRHPELFSRAAELTPPTAASAGAEPAPEPRRFTIEVNGRRFGVAVFGDGMNATPVASPSRSAPARRAAPKKTTLAAPVDAVISPIQGRVVAVRVAHGQQVEAGQVLFIVEAMAMENEITAPHSGTIAEVRVEVGTTVEAGAMLATYQNTANNTNGK
With B5, in assay [1], the binding result was “no binding (tested: 150 ng)”.
